# Source: PubChem BioAssay AID208 (DTP/NCI, 2004)
# The list shows only some results of the screen, not a fair sample: it is rich in T/C values a quarter to a half above the control, in often repeated tests (any T/C) and in doses without a T/C. Further doses and runs are listed elsewhere. T/C: endpoint of the treated group in % of that of the vehicle group. Schedule codes are those of the source, read here as Q, the interval in days (D) or hours (H), X, the number of doses. Some T/C values are negative: the treated tumours shrank. Some entries hold several experiments; the results are listed from low to high. Some T/C values carry the count of animals alive at the toxicity check (mostly the fifth day); without a count, all were alive then. Signs of the kind (2×) count equal records among those shown. Some entries give survivors of the animals treated and no T/C: the source files T/C as zero there, which appears to mark a toxic dose or a test without result, not a measured value. Survivors were counted at the toxicity check, usually on the fifth day, unless a day is given; later deaths do not show. *1 amine or outer side, *2 acyl side, *3 side chain or, on linkers, in order; H or OH if unused. Where a SMILES comes first, the peptide text is derived from it. Bridges are numbered along the chain shown (N, C = ends). Roman numbers before positions name the chains, in order. [ ]: non-standard residue; d: D form. Actinocin(9to1) = Cc1c2oc3c(C)ccc(C(=O)[*:1])c3nc-2c(C(=O)[*:2])c(N)c1=O; aThr = C[C@H](O)[C@H](N)C(=O)O; NMeV = CN[C@H](C(=O)O)C(C)C; Sar = CNCC(=O)O
# Test system: HT29 intrarenal xenograft, nude mice, tumor weight change
# Experiment: NCI In Vivo Anticancer Drug Screen. Data for tumor model HT29;CX-1 Human Adenocarcinoma (MER+) (intrarenal inoculation) in NU/NU BALB/C (nude) mice
# Conditions: T/C endpoint: mean tumor weight change, higher T/C = larger tumour
# Procedure: The antitumor activity of compounds was measured in mice bearing transplantable tumors. Survival or tumor size were measured and the results are expressed as the measurement made in the treated group (T) divided by the measurement made in the vehicle treated control group (C). The tumor model used in this assay is HT29;CX-1 Human Adenocarcinoma (MER+) (intrarenal inoculation) in NU/NU BALB/C (nude) mice
# [1] = dose: 300.0 mg/kg/injection, schedule: Q04DX004 (sc), vehicle: suspension in saline
# [2] = dose: 1600.0 mg/kg/injection, schedule: Q04DX004 (sc), vehicle: saline with Tween-80
# [3] = dose: 400.0 mg/kg/injection, schedule: Q04DX004 (sc), vehicle: saline
compound,measurement,setting,value
CC(C)C(N)C(=O)Nc1nncs1 (configuration not stated),survivor count,"dose: 1200.0 mg/kg/injection, schedule: Q04DX004 (sc), vehicle: saline",0 of 6 on day 15
CC(C)CCC(=O)c1ccoc1,survivor count,"dose: 12.0 mg/kg/injection, schedule: Q01DX010 (ip), vehicle: saline with Tween-80",0 of 6 on day 11
same,survivor count,"dose: 24.0 mg/kg/injection, schedule: Q01DX010 (ip), vehicle: saline with Tween-80",0 of 6 on day 11
COc1nc(=O)n(C2C=CC(=O)O2)cc1F (configuration not stated),survivor count,[1],3 of 6 on day 15
same,survivor count,"dose: 600.0 mg/kg/injection, schedule: Q04DX004 (sc), vehicle: suspension in saline",2 of 4 on day 15
CS(=O)(=O)OCCCNCCCOS(C)(=O)=O,survivor count,"dose: 150.0 mg/kg/injection, schedule: Q04DX004 (sc), vehicle: saline",0 of 6 on day 15
same,survivor count,"dose: 300.0 mg/kg/injection, schedule: Q04DX004 (sc), vehicle: saline",0 of 6 on day 15
same,survivor count,"dose: 600.0 mg/kg/injection, schedule: Q04DX004 (sc), vehicle: saline",0 of 6 on day 15
CN(C)c1ccc(C(=C2C=CC(=[N+](C)C)C=C2)c2ccc(N(C)C)cc2)cc1 (tested in a mixture with another compound),survivor count,"dose: 300.0 mg/kg/injection, schedule: Q04DX004 (sc), vehicle: saline with Tween-80",2 of 6 on day 15
same,survivor count,"dose: 600.0 mg/kg/injection, schedule: Q04DX004 (sc), vehicle: saline with Tween-80",0 of 6 on day 15
same,survivor count,"dose: 1200.0 mg/kg/injection, schedule: Q04DX004 (sc), vehicle: saline with Tween-80",1 of 6 on day 15
CC(=O)Oc1ccc[nH]c1=O,survivor count,[2],0 of 6 on day 15
CN(C)P(=O)(Oc1ccccc1)N(C)C,survivor count,[2],0 of 6 on day 15
O=C(Nc1cc(Cl)ccc1C(=O)O)c1cccc(C[n+]2ccccc2)c1,T/C,"dose: 75.0 mg/kg/injection, schedule: Q04DX004 (ip), vehicle: saline with Tween-80, evaluated on day 15",130 % of control
same,survivor count,"dose: 600.0 mg/kg/injection, schedule: Q04DX004 (ip), vehicle: saline with Tween-80",2 of 6 on day 15
CCCCNCCCNCCCNC(=O)c1csc(-c2csc(CCNC(=O)C(NC(=O)C(C)C(O)C(C)NC(=O)C(NC(=O)c3nc(C(CC(N)=O)NCC(N)C(N)=O)nc(N)c3C)C(OC3OC(CO)C(O)C(O)C3OC3OC(CO)C(O)C(OC(N)=O)C3O)c3cnc[nH]3)C(C)O)n2)n1 (configuration not stated),survivor count,"dose: 64.0 mg/kg/injection, schedule: Q01DX010 (sc), vehicle: saline",1 of 3 on day 11
ClCCCN1CCCCC1CCl (configuration not stated),survivor count,"dose: 50.0 mg/kg/injection, schedule: Q04DX004 (sc), vehicle: saline",0 of 6 on day 15
COC1C(C)OC(OC2CC(C)(O)Cc3cc4c(c(O)c32)C(=O)c2c(O)cc3c(c2C4=O)OC2OC3(C)C(O)C(N(C)C)C2O)C(OC)C1(C)OC (configuration not stated),survivor count,"dose: 80.0 mg/kg/injection, schedule: Q04DX004 (sc), vehicle: Klucel (hydroxypropylcellulose) (HPC)",1 of 6 on day 15
same,survivor count,"dose: 160.0 mg/kg/injection, schedule: Q04DX004 (sc), vehicle: Klucel (hydroxypropylcellulose) (HPC)",2 of 5 on day 15
O=C1C=CC(n2cc(F)c(=O)[nH]c2=O)O1 (configuration not stated),survivor count,[1],0 of 4 on day 15
Cc1c(-c2ccc(-c3ccccc3F)cc2)nc2ccc(F)cc2c1C(=O)O,T/C,"dose: 6.9 mg/kg/injection, schedule: Q01DX009 (ip), vehicle: water, evaluated on day 11","14 [5 of 6 alive on day 11], 16, 46 % of control"
same,T/C,"dose: 6.9 mg/kg/injection, schedule: Q01DX009 (ip), vehicle: water, evaluated on day 15",69 % of control
same,T/C,"dose: 11.5 mg/kg/injection, schedule: Q01DX009 (ip), vehicle: water, evaluated on day 11","5, 15 [5 of 6 alive on day 11], 110 % of control"
same,T/C,"dose: 11.5 mg/kg/injection, schedule: Q01DX009 (ip), vehicle: water, evaluated on day 15",39 % of control
same,T/C,"dose: 19.2 mg/kg/injection, schedule: Q01DX009 (ip), vehicle: water, evaluated on day 11","2, 18 [4 of 6 alive on day 11], 65 % of control"
same,T/C,"dose: 19.2 mg/kg/injection, schedule: Q01DX009 (ip), vehicle: water, evaluated on day 15",40 % of control [5 of 6 alive on day 15]
same,survivor count,"dose: 25.0 mg/kg/injection, schedule: Q01DX010 (ip), vehicle: water",0 of 6 on day 15
same,T/C,"dose: 32.0 mg/kg/injection, schedule: Q01DX009 (ip), vehicle: water, evaluated on day 11",10 and 32 % of control
same,T/C,"dose: 32.0 mg/kg/injection, schedule: Q01DX009 (ip), vehicle: water, evaluated on day 15",3 % of control [5 of 6 alive on day 15]
same,survivor count,"dose: 32.0 mg/kg/injection, schedule: Q01DX009 (ip), vehicle: water",2 of 6 on day 11
same,survivor count,"dose: 50.0 mg/kg/injection, schedule: Q01DX010 (ip), vehicle: water",1 of 6 on day 15
same,survivor count,"dose: 53.3 mg/kg/injection, schedule: Q01DX009 (ip), vehicle: water",0 of 6 on day 11 and 1 of 6 on day 11
same,survivor count,"dose: 100.0 mg/kg/injection, schedule: Q01DX010 (ip), vehicle: water",0 of 6 on day 15
"Cc1c2oc3c(C)ccc(C(=O)N[C@@H]4C(=O)N[C@H](C(C)C)C(=O)N5CCC[C@H]5C(=O)N(C)CC(=O)N(C)[C@@H](C(C)C)C(=O)O[C@H]4C)c3nc-2c(C(=O)N[C@@H]2C(=O)N[C@H](C(C)C)C(=O)N3CCC[C@H]3C(=O)N(C)CC(=O)N(C)[C@@H](C(C)C)C(=O)O[C@H]2C)c(N)c1=O (I: [aThr][dV]P[Sar][NMeV] / II: [aThr][dV]P[Sar][NMeV]; ester I:1-I:C, II:1-II:C; linker I:N-II:N via Actinocin(9to1))",T/C,"dose: 0.13 mg/kg/injection, schedule: Q04DX004 (ip), vehicle: saline, evaluated on day 15","-5, 29, 44, 63, 81 % of control"
same,survivor count,"dose: 0.13 mg/kg/injection, schedule: Q04DX004 (ip), vehicle: saline",0 of 6 on day 15
same,T/C,"dose: 0.2 mg/kg/injection, schedule: Q04DX004 (ip), vehicle: saline, evaluated on day 15","5, 14, 27, 36, 72 % of control"
same,survivor count,"dose: 0.2 mg/kg/injection, schedule: Q04DX004 (ip), vehicle: saline",0 of 6 on day 15
same,T/C,"dose: 0.3 mg/kg/injection, schedule: Q04DX004 (ip), vehicle: saline, evaluated on day 15",-26 (2×) and 36 % of control (3×)
same,survivor count,"dose: 0.3 mg/kg/injection, schedule: Q04DX004 (ip), vehicle: saline",0 of 6 on day 15
O=NN(CCCl)C(=O)NCCCl,T/C,"dose: 12.0 mg/kg/injection, schedule: Q04DX004 (ip), vehicle: saline + alcohol, evaluated on day 15","47, 61, 83, 107 % of control"
same,T/C,"dose: 18.0 mg/kg/injection, schedule: Q04DX004 (ip), vehicle: saline + alcohol, evaluated on day 15","-21, 31, 74, 136 % of control"
same,T/C,"dose: 27.0 mg/kg/injection, schedule: Q04DX004 (ip), vehicle: saline + alcohol, evaluated on day 15","49 [5 of 6 alive on day 15], 62, 97, 115 % of control [5 of 6 alive on day 15]"
N=C(N)c1ccc(/C=C/c2ccc(C(=N)N)cc2O)cc1,T/C,"dose: 37.5 mg/kg/injection, schedule: Q04DX004 (sc), vehicle: water, evaluated on day 15",137 % of control
same,survivor count,"dose: 300.0 mg/kg/injection, schedule: Q04DX004 (sc), vehicle: water",3 of 6 on day 15
Nc1ccn([C@@H](C=O)O[C@@H](C=O)CO)c(=O)n1,survivor count,[3],0 of 6 on day 15
COc1cc(C)c2c(c1C=O)Oc1c(c(C)c(O)c3c1C(O)OC3=O)OC2=O (configuration not stated),survivor count,"dose: 200.0 mg/kg/injection, schedule: Q01DX010 (sc), vehicle: saline",1 of 3 on day 11
CC[As](=O)(O)CC,survivor count,"dose: 200.0 mg/kg/injection, schedule: Q04DX004 (sc), vehicle: saline",1 of 4 on day 15
same,survivor count,[3],1 of 6 on day 15
same,survivor count,"dose: 800.0 mg/kg/injection, schedule: Q04DX004 (sc), vehicle: saline",0 of 6 on day 15
CN=C(NC#N)NCCSCc1nc[nH]c1C,T/C,"dose: 1800.0 mg/kg/injection, schedule: Q04DX004 (sc), vehicle: Klucel (hydroxypropylcellulose) (HPC), evaluated on day 15",135 % of control [5 of 6 alive on day 15]
CN(C)N=Nc1ccc(S(N)(=O)=O)cc1,survivor count,"dose: 400.0 mg/kg/injection, schedule: Q01DX010 (sc), vehicle: Klucel (hydroxypropylcellulose) (HPC)",3 of 6 on day 11
same,survivor count,"dose: 800.0 mg/kg/injection, schedule: Q01DX010 (sc), vehicle: Klucel (hydroxypropylcellulose) (HPC)",0 of 6 on day 11
